# Measurements taken from patent US20260216355A1, “ANTIBODY-DRUG CONJUGATE FROM N-OXYCYCLOALKYL SUBSTITUTED CAMPTOTHECIN DERIVATIVE” (priority 2022, published 2026).
# Some results were stated once for a whole list of compounds, not compound by compound.
# How the values were obtained:
# [1] = tested on: Human esophageal cancer cells OE-33; assay: In vitro inhibitory activity of ADC against tumor cell growth (CCK-8), OE-33; format: cell-based; settings: OE-33 cells
# Source text: (§1) Method for in vitro inhibitory activity assay of ADC: Human esophageal cancer cells OE-33, lung cancer cells NCI-H1975, and breast cancer cells MDA-MB-231 used for activity assays were respectively cultured in RPMI1640 (Cellmax), RPMI1640 (Cellmax), and DMEM (Cellmax) media containing 10% fetal bovine serum (FBS, Cellmax) to the exponential growth phase. After trypsinization, the cells were centrifuged, and the supernatant was discarded. The cells were resuspended with media and diluted to 3×10^4 cells/mL, 0.5×10^4 cells/mL and 1.5×10^4 cells/mL respectively. Then, 100 μL of each cell suspension was added to a 96-well cell culture plate, and the plate was returned to an incubator at 37° C. with 5% CO2 for overnight culture. The next day, the ADC to be tested was diluted to 2000 nM, 400 nM, 80 nM, 16 nM, 3.2 nM, 0.64 nM, 0.128 nM, and 0.026 nM using culture medium. The diluted ADC was added to a 96-well cell culture plate at 100 μL per well, with 3 replicates set for each concentration. For the negative control without ADC and the blank control, 100 μL of culture medium was added to each well. After the sample addition was finished, the plate was returned to the incubator at 37° C. with 5% CO2 for further incubation for 6 days. Upon completion of incubation, the cell culture plate was removed, and the medium in the plate was aspirated using a pipette. 100 μL of medium containing 10% CCK-8 was added to each well, followed by incubation at 37° C. for 3 h. After incubation, the plate was removed, protected from light, placed in a microplate reader, and the absorbance was measured at a test wavelength of 450 nm with a reference wavelength of 630 nm. Based on the absorbance values, the IC50 (Table 1) was calculated using four-parameter regression in GraphPad. The corresponding ADC drug containing Dxd was used as a positive control drug, which has the following structure: […]
# [2] = tested on: breast cancer cells MDA-MB-231; assay: In vitro inhibitory activity of ADC against tumor cell growth (CCK-8), MDA-MB-231; format: cell-based, Human; settings: MDA-MB-231 cells
# Source text: as §1
# [3] = tested on: lung cancer cells NCI-H1975; assay: In vitro inhibitory activity of ADC against tumor cell growth (CCK-8), NCI-H1975; format: cell-based, Human
# Source text: as §1
# [4] = bound stated in text, listed as 4
# [5] = bound stated in text, listed as ADC4
Substance,"IC50 [1, 4] [µM]","IC50 [1, 5] [µM]","IC50 [2, 4] [µM]","IC50 [2, 5] [µM]","IC50 [3, 4] [µM]","IC50 [3, 5] [µM]",IC50 ([1]; bound stated) [µM],IC50 ([2]; bound stated) [µM],IC50 ([3]; bound stated) [µM]
"7-(N-(IP140B-mPEG2-Gly-Lys-PABC), N-(tetrahydropyran-4-yl)amino)ethyl-10,11-methylenedioxycamptothecin [ADC 4]",< 0.05,< 0.01,< 0.05,< 0.01,< 0.05,< 0.01,–,–,–
"7-(N-(IP140B-Qx-PEG2-Gly-Lys-PABC), N-((R)-tetrahydrofuran-3-yl)amino)ethyl-10,11-methylenedioxycamptothecin [ADC 12]",–,–,–,–,–,–,< 0.05,< 0.05,< 0.05
"7-(N-(HS627-mPEG2-Gly-Lys-PABC), N-(tetrahydropyran-4-yl)amino)ethyl-10,11-methylenedioxycamptothecin [ADC 3]",–,–,–,–,–,–,< 0.05,< 0.05,< 0.05
"7-(N-(IP140B-Ac-PEG2-Gly-Lys-PABC), N-((R)-tetrahydrofuran-3-yl)amino)ethyl-10,11-methylenedioxycamptothecin [ADC 14]",–,–,–,–,–,–,< 0.05,< 0.05,< 0.05
